In paper PMC5398888:
These are yes or no findings as the source states them, for the method shown. Binding seen in cells or lysates may run through a third protein. Some results given as binding are weak or reduced against the parent protein; the word gives no strength. Sequences can lack the tags named with a protein.

T1: FLAG-hFBXL3 (human FBXL3) (human) (UniProt Q9UKT7)
T1 sequence: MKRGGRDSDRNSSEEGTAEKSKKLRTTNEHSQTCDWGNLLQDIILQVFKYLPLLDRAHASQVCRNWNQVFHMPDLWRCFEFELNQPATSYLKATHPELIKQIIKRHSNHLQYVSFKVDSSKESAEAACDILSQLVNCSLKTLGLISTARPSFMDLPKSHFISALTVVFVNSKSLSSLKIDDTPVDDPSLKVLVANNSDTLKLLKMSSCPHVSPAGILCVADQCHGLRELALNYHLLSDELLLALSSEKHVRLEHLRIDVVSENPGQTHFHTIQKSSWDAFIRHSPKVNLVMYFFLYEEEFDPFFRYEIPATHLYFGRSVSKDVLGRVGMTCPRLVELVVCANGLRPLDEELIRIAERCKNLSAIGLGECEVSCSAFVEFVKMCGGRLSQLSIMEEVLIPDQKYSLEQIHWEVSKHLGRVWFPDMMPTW


Columns and labels:
[1] = target: T1, FLAG-hFBXL3 (human FBXL3) (human); experiment: co-IP; FAD competition assay: CRY2-FBXL3 complex from co-transfected HEK293 cells (10 uM MG132, 6 hr) held on anti-FLAG M2 affinity gel; FAD added in 40 ul PBS for 2 hr on ice; released CRY2 in the supernatant, CRY2 still bound to FLAG-FBXL3 eluted with SDS sample buffer
[2] = target: T1, FLAG-hFBXL3 (human FBXL3) (human); experiment: co-IP; HEK293 cells co-transfected with hCRY2-His-Myc (WT or A260T) and FLAG-hFBXL3, 10 uM MG132 for 6 hr before harvest; complex taken on anti-FLAG M2 affinity gel and eluted with 300 ug/ml 3xFLAG peptide

Binder | binding [1] | binding [2]
hCRY2-A260T-Myc-His (human Cryptochrome 2, A260T) (protein, UniProt Q49AN0 1-593) MAATVATAAAVAPAPAPGTDSASSVHWFRKGLRLHDNPALLAAVRGARCVRCVYILDPWFAASSSVGINRWRFLLQSLEDLDTSLRKLNSRLFVVRGQPADVFPRLFKEWGVTRLTFEYDSEPFGKERDAAIMKMAKEAGVEVVTENSHTLYDLDRIIELNGQKPPLTYKRFQAIISRMELPKKPVGLVTSQQMESCRAEIQENHDETYGVPSLEELGFPTEGLGPAVWQGGETEALARLDKHLERKAWVANYERPRMNTNSLLASPTGLSPYLRFGCLSCRLFYYRLWDLYKKVKRNSTPPLSLFGQLLWREFFYTAATNNPRFDRMEGNPICIQIPWDRNPEALAKWAEGKTGFPWIDAIMTQLRQEGWIHHLARHAVACFLTRGDLWVSWESGVRVFDELLLDADFSVNAGSWMWLSCSAFFQQFFHCYCPVGFGRRTDPSGDYIRRYLPKLKAFPSRYIYEPWNAPESIQKAAKCIIGVDYPRPIVNHAETSRLNIERMKQIYQQLSRYRGLCLLASVPSCVEDLSHPVAEPSSSQAGSMSSAGPRPLPSGPASPKRKLEAAEEPPGEELSKRARVAELPTPELPSKDA | binds | binds
hCRY2-WT-Myc-His (human Cryptochrome 2, wild type) (protein, UniProt Q49AN0 1-593) MAATVATAAAVAPAPAPGTDSASSVHWFRKGLRLHDNPALLAAVRGARCVRCVYILDPWFAASSSVGINRWRFLLQSLEDLDTSLRKLNSRLFVVRGQPADVFPRLFKEWGVTRLTFEYDSEPFGKERDAAIMKMAKEAGVEVVTENSHTLYDLDRIIELNGQKPPLTYKRFQAIISRMELPKKPVGLVTSQQMESCRAEIQENHDETYGVPSLEELGFPTEGLGPAVWQGGETEALARLDKHLERKAWVANYERPRMNANSLLASPTGLSPYLRFGCLSCRLFYYRLWDLYKKVKRNSTPPLSLFGQLLWREFFYTAATNNPRFDRMEGNPICIQIPWDRNPEALAKWAEGKTGFPWIDAIMTQLRQEGWIHHLARHAVACFLTRGDLWVSWESGVRVFDELLLDADFSVNAGSWMWLSCSAFFQQFFHCYCPVGFGRRTDPSGDYIRRYLPKLKAFPSRYIYEPWNAPESIQKAAKCIIGVDYPRPIVNHAETSRLNIERMKQIYQQLSRYRGLCLLASVPSCVEDLSHPVAEPSSSQAGSMSSAGPRPLPSGPASPKRKLEAAEEPPGEELSKRARVAELPTPELPSKDA | binds | binds
